Test results from PubChem BioAssay (EPA / NIEHS).
This list was built around the results that the source calls inconclusive (neither active nor inactive); the mix of calls is not that of the screen. Potencies beside an inconclusive call are fits to weak or partial responses and may not hold up. Activity calls are given as the source filed them. How the source made its calls: active means hit-call score of the fitted dose curve at least 0.9, where 1 is the maximum; inconclusive means response in the unintended direction; inactive means score below 0.9.

These compounds were tested on chicken Androgen Receptor (AR), gene 422165 (assay: ATG_chAR_XSP1: Attagene TRANS-FACTORIAL Multi-Species (XSP1) HepG2 Assay for chicken Androgen Receptor (AR) (AID 2283768)).
Procedure, shortened: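 Reporter mRNA read by RT-PCR with fluorescent labelling and capillary electrophoresis 24 h after chemical dosing of transiently transfected HepG2 cells. Chicken AR-Gal4 chimera, partially stimulated with 3 nM 6-alpha-fluorotestosterone; activity fitted upward relative to DMSO.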

Row | Compound | AC50 | outcome
1 | CCOCN(C(=O)CCl)c1c(C)cccc1CC | inconclusive: 100 µM | –
2 | CC(C)NC(=O)N1CC(=O)N(c2cc(Cl)cc(Cl)c2)C1=O | – | inactive
3 | CCCCOC(=O)c1ccccc1C(=O)OCCCC | – | inactive
4 | CC(C)(c1ccccc1)c1ccc(O)cc1 | inconclusive: 10 µM | –
5 | CCCN(CCC)c1c([N+](=O)[O-])cc(C(F)(F)F)cc1[N+](=O)[O-] | active: 47.9 µM | –
6 | CON(C)C(=O)Nc1ccc(Cl)c(Cl)c1 | inconclusive: 22.5 µM | –
7 | C[C@]12CCC(=O)C[C@@H]1CC[C@@H]1[C@@H]2CC[C@]2(C)[C@@H](O)CC[C@@H]12 | active: 0.282 µM | –
8 | C[C@]12C=CC3=C4CCC(=O)C=C4CC[C@H]3[C@@H]1CC[C@@H]2O | active: 0.00303 µM | –
9 | CCCOCC(=Nc1ccc(Cl)cc1C(F)(F)F)n1ccnc1 | inconclusive: 6 µM | –
10 | O=C1C2(Cl)C3(Cl)C4(Cl)C(Cl)(Cl)C5(Cl)C3(Cl)C1(Cl)C5(Cl)C24Cl (configuration not stated) | inconclusive: 5.77 µM | –
11 | COP(=S)(OC)Oc1ccc(SC)c(C)c1 | inconclusive: 26.8 µM | –
12 | CCCCNC(=O)OCC#CI | inconclusive: 17.1 µM | –

Some values from the list.
CC(C)(c1ccccc1)c1ccc(O)cc1 | AC50: inconclusive: 10 µM
O=C1C2(Cl)C3(Cl)C4(Cl)C(Cl)(Cl)C5(Cl)C3(Cl)C1(Cl)C5(Cl)C24Cl (configuration not stated) | AC50: inconclusive: 5.77 µM
